From publication doi:10.1101/2021.06.15.448540
These are yes or no findings as the source states them, for the method shown. Some binding calls cover weakened binding; strength is not graded here.

Key:
Assay in all cases: MST
[1] = biological target: T1, FhuCB with FhuB S57 mutated to Ala (Escherichia coli) (UniProt P07821+P06972)
T1 sequence (chain, His-tag labeled with the red-tris-NTA 2nd generation dye (in the MST)) 1: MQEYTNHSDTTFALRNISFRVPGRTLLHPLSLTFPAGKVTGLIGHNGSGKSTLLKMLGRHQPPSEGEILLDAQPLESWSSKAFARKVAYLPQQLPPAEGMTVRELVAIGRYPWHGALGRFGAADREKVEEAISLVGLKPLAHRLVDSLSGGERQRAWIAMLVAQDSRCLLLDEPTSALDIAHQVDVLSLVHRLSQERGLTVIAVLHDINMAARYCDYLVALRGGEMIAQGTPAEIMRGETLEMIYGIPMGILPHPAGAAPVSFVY
T1 sequence (chain, His-tag labeled with the red-tris-NTA 2nd generation dye (in the MST)) 2: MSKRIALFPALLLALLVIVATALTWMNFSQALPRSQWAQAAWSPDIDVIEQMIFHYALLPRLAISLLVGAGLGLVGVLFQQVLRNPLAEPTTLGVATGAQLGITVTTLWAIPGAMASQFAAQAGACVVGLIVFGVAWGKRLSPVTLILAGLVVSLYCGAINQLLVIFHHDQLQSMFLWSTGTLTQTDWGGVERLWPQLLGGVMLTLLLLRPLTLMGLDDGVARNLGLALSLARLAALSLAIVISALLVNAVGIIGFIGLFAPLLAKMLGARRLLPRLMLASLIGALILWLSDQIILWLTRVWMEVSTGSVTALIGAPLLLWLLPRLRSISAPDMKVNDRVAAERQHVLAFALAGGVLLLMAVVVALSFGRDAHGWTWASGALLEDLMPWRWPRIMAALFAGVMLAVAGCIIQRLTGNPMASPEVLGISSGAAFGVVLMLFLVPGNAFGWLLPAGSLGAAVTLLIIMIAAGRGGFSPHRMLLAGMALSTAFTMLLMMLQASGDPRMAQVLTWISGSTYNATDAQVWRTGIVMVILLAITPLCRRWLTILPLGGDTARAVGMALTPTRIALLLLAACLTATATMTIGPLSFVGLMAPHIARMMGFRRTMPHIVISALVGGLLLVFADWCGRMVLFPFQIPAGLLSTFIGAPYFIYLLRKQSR

[2] = biological target: T2, FhuCB with FhuB Q636 mutated to Ala (Escherichia coli) (UniProt P07821+P06972)
T2 sequence (chain, His-tag labeled with the red-tris-NTA 2nd generation dye (in the MST)) 1: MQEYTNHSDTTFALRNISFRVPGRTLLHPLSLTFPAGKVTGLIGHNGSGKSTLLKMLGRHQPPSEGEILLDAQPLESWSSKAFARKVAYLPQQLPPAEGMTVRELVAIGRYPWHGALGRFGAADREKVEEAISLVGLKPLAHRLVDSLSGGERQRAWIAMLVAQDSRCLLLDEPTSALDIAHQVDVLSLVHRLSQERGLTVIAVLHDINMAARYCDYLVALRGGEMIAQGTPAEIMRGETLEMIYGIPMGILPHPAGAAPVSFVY
T2 sequence (chain, His-tag labeled with the red-tris-NTA 2nd generation dye (in the MST)) 2: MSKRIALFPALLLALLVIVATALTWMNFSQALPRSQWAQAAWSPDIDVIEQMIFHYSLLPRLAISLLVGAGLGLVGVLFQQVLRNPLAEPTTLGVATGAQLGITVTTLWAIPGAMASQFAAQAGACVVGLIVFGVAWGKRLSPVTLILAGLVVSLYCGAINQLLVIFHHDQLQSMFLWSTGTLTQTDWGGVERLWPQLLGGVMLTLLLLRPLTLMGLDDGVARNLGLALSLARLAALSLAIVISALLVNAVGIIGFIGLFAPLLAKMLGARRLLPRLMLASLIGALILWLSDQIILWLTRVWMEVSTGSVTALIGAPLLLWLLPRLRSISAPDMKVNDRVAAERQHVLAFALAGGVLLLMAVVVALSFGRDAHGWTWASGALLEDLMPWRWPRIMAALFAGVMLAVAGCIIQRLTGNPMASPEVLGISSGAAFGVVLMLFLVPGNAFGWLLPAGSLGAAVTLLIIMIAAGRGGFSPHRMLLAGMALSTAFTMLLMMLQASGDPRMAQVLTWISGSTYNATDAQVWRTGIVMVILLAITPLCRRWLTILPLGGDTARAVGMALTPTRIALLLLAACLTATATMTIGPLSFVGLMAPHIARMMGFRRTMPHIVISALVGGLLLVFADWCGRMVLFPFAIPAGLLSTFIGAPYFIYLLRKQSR

[3] = biological target: T3, FhuCB with FhuB S515 and Y517 mutated to Ala (Escherichia coli) (UniProt P07821+P06972)
T3 sequence (chain, His-tag labeled with the red-tris-NTA 2nd generation dye (in the MST)) 1: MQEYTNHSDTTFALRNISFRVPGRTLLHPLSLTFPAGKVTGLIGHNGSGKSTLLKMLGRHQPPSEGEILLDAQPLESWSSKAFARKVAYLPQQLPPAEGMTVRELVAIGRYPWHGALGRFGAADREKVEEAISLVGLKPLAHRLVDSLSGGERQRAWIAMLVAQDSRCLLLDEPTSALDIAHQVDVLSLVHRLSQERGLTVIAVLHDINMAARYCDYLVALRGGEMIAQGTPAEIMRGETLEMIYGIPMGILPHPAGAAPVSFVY
T3 sequence (chain, His-tag labeled with the red-tris-NTA 2nd generation dye (in the MST)) 2: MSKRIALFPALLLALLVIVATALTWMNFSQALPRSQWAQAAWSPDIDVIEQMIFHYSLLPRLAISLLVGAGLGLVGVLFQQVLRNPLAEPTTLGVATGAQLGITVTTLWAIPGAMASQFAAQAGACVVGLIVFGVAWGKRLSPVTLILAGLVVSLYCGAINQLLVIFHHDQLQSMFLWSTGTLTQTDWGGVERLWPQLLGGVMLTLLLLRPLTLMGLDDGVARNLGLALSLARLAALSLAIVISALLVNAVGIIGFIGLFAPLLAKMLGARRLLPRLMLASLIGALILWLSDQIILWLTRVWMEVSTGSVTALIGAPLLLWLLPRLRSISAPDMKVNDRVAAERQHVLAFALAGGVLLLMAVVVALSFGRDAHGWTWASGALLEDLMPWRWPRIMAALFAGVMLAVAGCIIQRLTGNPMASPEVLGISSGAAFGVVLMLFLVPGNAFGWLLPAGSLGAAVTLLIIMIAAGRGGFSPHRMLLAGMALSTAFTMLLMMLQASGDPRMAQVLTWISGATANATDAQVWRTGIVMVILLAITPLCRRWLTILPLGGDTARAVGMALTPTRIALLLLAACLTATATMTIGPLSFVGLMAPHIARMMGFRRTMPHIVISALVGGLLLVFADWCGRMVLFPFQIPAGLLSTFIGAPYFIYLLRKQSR

Measured: binding

B1: FhuD (separately expressed periplasmic substrate-binding protein) (protein, UniProt P07822 31-296)
chain: AAIDPNRIVALEWLPVELLLALGIVPYGVADTINYRLWVSEPPLPDSVIDVGLRTEPNLELLTEMKPSFMVWSAGYGPSPEMLARIAPGRGFNFSDGKQPLAMARKSLTEMADLLNLQSAAETHLAQYEDFIRSMKPRFVKRGARPLLLTTLIDPRHMLVFGPNSLFQEILDEYGIPNAWQGETNFWGSTAVSIDRLAAYKDVDVLCFDHDNSKDMDALMATPLWQAMPFVRAGRFQRVPAVWFYGATLSAMHFVRVLDNAIGGKA
binds: all assays above
